In the supplement of paper PMC6411743:
± gives the standard deviation of the averaged measurements. The list shows a part of the results, in another mix than the full data.

Protein sequences, listed by entry. Tags and fused reporters are not part of them. Lines headed by an entry give the natural chain unless they say otherwise; changes in a name come on top.
UniProt O75691: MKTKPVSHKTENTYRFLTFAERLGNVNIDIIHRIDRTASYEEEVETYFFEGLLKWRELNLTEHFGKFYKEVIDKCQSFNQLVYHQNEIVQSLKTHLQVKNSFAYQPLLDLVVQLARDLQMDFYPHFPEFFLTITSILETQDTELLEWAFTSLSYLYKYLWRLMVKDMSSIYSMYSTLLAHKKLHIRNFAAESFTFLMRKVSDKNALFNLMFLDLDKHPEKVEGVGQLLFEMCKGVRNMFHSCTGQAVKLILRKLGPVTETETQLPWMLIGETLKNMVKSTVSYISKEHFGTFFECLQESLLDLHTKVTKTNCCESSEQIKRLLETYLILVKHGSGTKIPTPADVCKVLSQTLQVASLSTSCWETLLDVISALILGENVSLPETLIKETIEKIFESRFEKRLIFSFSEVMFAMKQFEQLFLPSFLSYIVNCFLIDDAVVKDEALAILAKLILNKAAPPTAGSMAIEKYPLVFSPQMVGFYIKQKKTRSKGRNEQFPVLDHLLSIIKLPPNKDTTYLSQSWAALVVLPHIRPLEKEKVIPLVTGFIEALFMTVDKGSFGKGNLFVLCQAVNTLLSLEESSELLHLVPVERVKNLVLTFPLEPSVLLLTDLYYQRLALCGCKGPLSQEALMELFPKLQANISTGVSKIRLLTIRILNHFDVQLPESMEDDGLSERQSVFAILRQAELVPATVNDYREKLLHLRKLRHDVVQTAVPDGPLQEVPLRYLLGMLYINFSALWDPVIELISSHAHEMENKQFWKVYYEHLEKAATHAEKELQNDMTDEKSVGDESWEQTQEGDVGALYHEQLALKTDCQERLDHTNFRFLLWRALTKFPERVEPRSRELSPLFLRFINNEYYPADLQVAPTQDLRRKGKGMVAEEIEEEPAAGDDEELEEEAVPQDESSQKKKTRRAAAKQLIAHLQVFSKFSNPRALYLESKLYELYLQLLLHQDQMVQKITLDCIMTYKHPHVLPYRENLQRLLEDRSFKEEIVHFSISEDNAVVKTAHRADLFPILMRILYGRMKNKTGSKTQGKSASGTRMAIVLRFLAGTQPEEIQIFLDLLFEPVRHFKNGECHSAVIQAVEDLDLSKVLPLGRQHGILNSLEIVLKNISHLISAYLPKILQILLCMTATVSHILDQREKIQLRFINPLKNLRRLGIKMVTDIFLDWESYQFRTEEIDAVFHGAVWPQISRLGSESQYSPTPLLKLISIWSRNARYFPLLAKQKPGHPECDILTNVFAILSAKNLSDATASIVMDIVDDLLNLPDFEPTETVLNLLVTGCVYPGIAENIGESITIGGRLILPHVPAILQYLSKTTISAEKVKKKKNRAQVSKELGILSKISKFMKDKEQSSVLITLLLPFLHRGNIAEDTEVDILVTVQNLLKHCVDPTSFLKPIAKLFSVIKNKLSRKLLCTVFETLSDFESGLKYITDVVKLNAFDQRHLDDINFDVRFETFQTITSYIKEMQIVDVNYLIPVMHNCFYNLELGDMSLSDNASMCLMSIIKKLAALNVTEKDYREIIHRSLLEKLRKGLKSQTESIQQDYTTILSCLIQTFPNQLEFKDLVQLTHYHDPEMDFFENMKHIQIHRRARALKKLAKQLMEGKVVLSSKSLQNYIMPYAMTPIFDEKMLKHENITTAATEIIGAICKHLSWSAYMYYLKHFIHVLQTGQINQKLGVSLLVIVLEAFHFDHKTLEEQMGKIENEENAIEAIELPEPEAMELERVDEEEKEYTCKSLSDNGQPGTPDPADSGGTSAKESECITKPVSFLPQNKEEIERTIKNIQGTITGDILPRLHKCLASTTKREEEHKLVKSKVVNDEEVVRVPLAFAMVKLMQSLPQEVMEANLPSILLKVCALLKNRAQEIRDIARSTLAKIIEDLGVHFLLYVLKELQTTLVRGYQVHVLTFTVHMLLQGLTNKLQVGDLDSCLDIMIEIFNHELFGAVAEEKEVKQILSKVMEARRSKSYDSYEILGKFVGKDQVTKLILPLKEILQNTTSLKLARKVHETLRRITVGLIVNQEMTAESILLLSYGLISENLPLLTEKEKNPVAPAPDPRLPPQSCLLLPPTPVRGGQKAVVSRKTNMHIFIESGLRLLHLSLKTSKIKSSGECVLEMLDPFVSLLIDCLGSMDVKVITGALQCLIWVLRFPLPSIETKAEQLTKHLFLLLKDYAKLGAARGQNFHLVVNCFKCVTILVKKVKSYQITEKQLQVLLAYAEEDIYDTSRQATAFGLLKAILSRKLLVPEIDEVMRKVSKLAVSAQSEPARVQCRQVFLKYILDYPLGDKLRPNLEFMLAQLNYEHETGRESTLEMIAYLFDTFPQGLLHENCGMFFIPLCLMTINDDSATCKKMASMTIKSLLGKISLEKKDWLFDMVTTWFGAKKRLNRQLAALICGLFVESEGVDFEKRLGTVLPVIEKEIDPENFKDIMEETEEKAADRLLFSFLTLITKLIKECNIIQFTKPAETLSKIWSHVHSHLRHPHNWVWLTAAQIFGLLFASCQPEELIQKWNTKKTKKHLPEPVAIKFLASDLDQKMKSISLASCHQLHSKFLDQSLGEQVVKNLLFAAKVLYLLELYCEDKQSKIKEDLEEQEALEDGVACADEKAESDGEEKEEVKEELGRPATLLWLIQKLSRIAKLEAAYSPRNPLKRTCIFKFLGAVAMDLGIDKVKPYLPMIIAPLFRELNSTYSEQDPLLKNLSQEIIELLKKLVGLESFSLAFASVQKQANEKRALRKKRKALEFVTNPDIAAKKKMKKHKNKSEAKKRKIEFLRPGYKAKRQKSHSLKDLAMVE
UniProt O75529: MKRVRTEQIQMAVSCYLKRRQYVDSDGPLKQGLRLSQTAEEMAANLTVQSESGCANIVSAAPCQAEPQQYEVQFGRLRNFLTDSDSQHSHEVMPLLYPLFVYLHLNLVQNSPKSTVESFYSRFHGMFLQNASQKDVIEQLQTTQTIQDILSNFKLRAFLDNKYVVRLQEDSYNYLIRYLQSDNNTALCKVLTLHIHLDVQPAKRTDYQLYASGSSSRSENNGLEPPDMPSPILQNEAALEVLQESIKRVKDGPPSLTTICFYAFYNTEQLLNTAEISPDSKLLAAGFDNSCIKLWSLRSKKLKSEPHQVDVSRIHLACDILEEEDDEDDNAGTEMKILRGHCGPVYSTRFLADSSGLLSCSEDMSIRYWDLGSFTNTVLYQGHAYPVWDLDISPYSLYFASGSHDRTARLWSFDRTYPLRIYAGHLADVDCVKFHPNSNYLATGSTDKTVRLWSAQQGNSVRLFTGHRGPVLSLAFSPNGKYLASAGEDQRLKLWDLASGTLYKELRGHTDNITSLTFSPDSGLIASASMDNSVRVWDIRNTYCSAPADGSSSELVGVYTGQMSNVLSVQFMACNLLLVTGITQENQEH
UniProt O75071: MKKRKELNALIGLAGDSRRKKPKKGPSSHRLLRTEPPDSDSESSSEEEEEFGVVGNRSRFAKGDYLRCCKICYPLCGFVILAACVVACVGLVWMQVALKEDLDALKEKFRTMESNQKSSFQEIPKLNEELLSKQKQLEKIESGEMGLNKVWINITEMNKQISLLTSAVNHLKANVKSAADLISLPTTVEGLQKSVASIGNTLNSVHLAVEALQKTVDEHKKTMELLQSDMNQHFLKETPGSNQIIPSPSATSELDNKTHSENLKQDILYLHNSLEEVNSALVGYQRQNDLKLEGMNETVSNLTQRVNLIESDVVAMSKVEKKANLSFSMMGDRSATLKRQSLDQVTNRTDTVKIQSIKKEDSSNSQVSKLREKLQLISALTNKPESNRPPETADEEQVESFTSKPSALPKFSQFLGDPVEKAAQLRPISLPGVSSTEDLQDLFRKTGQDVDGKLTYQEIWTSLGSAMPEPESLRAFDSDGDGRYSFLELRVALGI
UniProt O94768: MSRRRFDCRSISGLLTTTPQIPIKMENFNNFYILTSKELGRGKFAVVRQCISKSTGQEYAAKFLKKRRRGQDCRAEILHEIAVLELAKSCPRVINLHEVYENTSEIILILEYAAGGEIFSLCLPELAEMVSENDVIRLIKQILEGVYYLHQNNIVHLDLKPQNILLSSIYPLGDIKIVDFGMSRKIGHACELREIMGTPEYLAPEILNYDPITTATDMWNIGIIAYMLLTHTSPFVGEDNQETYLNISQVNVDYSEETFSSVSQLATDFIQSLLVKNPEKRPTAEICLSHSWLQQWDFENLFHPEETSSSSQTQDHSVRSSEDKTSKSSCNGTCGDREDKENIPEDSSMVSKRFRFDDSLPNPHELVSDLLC
UniProt O95059: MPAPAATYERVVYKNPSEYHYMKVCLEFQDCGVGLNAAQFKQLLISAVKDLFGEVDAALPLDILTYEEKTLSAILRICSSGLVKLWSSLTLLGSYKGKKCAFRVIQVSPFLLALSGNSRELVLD
UniProt O60762: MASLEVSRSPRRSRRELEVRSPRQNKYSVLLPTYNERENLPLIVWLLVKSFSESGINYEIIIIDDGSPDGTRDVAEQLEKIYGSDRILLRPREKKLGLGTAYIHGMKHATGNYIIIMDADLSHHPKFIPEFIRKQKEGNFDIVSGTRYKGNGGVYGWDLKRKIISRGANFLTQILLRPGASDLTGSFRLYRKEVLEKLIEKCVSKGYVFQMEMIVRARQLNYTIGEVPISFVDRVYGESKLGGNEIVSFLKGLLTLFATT
UniProt O75865, whole entry: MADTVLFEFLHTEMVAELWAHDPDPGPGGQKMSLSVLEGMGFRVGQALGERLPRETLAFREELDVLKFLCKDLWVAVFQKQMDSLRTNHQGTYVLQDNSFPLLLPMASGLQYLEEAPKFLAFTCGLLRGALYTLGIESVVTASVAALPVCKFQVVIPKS
UniProt O95644: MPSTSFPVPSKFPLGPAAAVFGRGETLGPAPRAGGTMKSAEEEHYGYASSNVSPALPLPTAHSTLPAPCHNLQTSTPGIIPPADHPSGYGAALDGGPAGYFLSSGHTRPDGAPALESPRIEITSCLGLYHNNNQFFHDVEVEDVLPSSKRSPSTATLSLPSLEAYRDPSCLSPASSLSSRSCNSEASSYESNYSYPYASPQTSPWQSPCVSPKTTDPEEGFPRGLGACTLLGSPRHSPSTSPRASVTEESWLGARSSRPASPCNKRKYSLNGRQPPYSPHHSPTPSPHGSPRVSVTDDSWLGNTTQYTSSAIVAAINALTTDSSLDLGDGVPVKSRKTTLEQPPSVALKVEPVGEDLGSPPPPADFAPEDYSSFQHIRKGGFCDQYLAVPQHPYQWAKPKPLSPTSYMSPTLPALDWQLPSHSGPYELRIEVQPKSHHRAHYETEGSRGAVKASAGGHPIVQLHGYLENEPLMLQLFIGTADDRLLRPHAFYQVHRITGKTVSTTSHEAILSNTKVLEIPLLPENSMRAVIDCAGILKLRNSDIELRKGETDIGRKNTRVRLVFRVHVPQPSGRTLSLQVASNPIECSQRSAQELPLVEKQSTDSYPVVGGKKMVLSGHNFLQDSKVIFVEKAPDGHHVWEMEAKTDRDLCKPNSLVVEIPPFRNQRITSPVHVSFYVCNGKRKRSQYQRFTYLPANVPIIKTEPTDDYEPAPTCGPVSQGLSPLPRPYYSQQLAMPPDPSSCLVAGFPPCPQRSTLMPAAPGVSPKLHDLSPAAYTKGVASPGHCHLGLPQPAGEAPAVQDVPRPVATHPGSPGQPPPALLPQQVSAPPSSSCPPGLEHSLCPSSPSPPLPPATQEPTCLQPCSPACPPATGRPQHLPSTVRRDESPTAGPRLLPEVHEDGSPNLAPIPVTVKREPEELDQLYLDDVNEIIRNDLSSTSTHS
UniProt O75896: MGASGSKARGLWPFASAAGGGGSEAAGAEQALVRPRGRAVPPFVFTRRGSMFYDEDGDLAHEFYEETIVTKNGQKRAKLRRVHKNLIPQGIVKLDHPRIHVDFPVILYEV
UniProt O94830: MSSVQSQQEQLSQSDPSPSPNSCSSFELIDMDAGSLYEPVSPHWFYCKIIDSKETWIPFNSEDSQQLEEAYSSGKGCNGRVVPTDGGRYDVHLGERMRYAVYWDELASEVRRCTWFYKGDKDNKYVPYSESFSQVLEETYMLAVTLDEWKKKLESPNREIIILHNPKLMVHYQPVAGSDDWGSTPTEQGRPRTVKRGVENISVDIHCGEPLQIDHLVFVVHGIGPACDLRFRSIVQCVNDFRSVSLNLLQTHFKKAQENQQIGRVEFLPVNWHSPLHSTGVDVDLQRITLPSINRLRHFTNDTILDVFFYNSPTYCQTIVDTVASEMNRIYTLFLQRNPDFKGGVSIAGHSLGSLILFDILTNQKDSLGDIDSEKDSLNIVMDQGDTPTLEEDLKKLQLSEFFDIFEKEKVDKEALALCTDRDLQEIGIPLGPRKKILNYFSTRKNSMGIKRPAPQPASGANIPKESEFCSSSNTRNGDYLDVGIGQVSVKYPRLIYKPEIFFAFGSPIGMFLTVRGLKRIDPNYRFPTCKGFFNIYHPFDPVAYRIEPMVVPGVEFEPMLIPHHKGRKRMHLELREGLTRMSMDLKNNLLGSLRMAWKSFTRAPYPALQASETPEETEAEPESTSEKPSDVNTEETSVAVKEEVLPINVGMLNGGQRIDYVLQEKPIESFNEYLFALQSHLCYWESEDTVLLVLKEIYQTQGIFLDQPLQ

Compound: Nc1ncnc2c1ncn2[C@@H]1O[C@H](COP(=O)(O)OP(=O)(O)NP(=O)(O)O)[C@@H](O)[C@H]1O [adenylyl imidodiphosphate]
Test: NP40-soluble protein abundance relative to vehicle (solubility fold change) (ratio); higher = more soluble protein in presence of AMP-PNP
In short: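 Jurkat crude lysate (Dounce-homogenised) was treated with eight concentrations from 0.1 to 10 mM for 10 min at room temperature, then 3 min at 37 °C. It was solubilised with 0.8% NP40 and benzonase (60 min, 4 °C) and ultracentrifuged, and the supernatant was TMT-labelled for LC-MS/MS. Intensities were vsn-normalised, and the value is the fold change against the NP40-processed vehicle per replicate, from three independent experiments.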

Target	NP40-soluble protein abundance (concentration: 1mM)	NP40-soluble protein abundance (concentration: 2mM)	NP40-soluble protein abundance (concentration: 4mM)	NP40-soluble protein abundance (concentration: 6mM)	NP40-soluble protein abundance (concentration: 8mM)	NP40-soluble protein abundance (concentration: 10mM)
SH3BGRL (UniProt O75368)	0.939 ± 0.027	0.966 ± 0.028	0.888 ± 0.013	0.937 ± 0.031	0.907 ± 0.015	0.897 ± 0.033
UniProt O95551	0.999 ± 0.02	0.982 ± 0.014	0.9808 ± 0.0076	1.01 ± 0.031	0.997 ± 0.05	1.01 ± 0.046
ERAL1 (UniProt O75616)	0.7647 ± 0.0038	0.6675 ± 0.0031	0.716 ± 0.036	0.681 ± 0.011	0.674 ± 0.062	0.636 ± 0.04
UniProt O75081 and related entries	1 ± 0.031	1.03 ± 0.015	1.02 ± 0.02	1.05 ± 0.035	1.03 ± 0.05	1.03 ± 0.042
EXTL3 (UniProt O43909)	1.01 ± 0.033	1.01 ± 0.035	0.9978 ± 0.009	1.01 ± 0.022	1 ± 0.011	0.9971 ± 0.0096
STAM2 (UniProt O75886)	1.01 ± 0.032	1.02 ± 0.064	0.989 ± 0.033	1 ± 0.015	0.967 ± 0.021	0.995 ± 0.04
UniProt O95619 and related entries	1.04 ± 0.056	1.14 ± 0.12	1.1 ± 0.11	1.06 ± 0.026	1.04 ± 0.057	1.06 ± 0.021
SLU7 (UniProt O95391)	1.04 ± 0.022	1.04 ± 0.042	1.04 ± 0.026	1.04 ± 0.024	1.03 ± 0.045	1.1 ± 0.032
GGCT (UniProt O75223)	0.9982 ± 0.0093	1.04 ± 0.077	0.993 ± 0.021	1.08 ± 0.059	1.04 ± 0.073	1.08 ± 0.06
UniProt O60828 and related entries	1.05 ± 0.015	1.16 ± 0.035	1.09 ± 0.014	1.15 ± 0.02	1.122 ± 0.0021	1.22 ± 0.076
UniProt O75312	1.006 ± 0.0071	1.04 ± 0.052	1.01 ± 0.019	0.987 ± 0.026	0.958 ± 0.0055	0.963 ± 0.042
SURF6 (UniProt O75683)	1.05 ± 0.056	1.12 ± 0.092	1.1 ± 0.057	1.17 ± 0.095	1.14 ± 0.12	1.22 ± 0.088
WDHD1 (UniProt O75717)	1.01 ± 0.021	0.996 ± 0.012	0.99 ± 0.015	0.963 ± 0.036	0.953 ± 0.016	0.937 ± 0.014
UniProt O75964	0.961 ± 0.051	0.95 ± 0.089	0.972 ± 0.07	1.1 ± 0.088	1.1 ± 0.032	1.1 ± 0.079
UniProt O75306 and related entries	0.952 ± 0.024	0.91 ± 0.12	0.945 ± 0.028	0.946 ± 0.037	0.939 ± 0.032	0.914 ± 0.065
UniProt O60830 and related entries	1.03 ± 0.075	1.02 ± 0.025	1.04 ± 0.078	1.02 ± 0.069	1.02 ± 0.079	1.02 ± 0.07
UniProt O75175 and related entries	0.995 ± 0.033	1.09 ± 0.08	1.1 ± 0.062	1.16 ± 0.09	1.15 ± 0.1	1.21 ± 0.094
UniProt O75170-3|O75170-4|O75170-5|O75170 and related entries	0.9985 ± 0.0062	0.99 ± 0.014	1.017 ± 0.01	0.979 ± 0.013	0.953 ± 0.044	0.971 ± 0.028
UniProt O60504-2|O60504	1.03 ± 0.013	0.999 ± 0.018	1.04 ± 0.018	1.03 ± 0.029	1.02 ± 0.029	1.02 ± 0.025
SS18L1 (UniProt O75177)	1.02 ± 0.048	1.02 ± 0.029	0.967 ± 0.032	1.01 ± 0.018	0.996 ± 0.033	1.03 ± 0.041

Record cards, from the list above. Values in the order: NP40-soluble protein abundance (concentration: 1mM)	NP40-soluble protein abundance (concentration: 2mM)	NP40-soluble protein abundance (concentration: 4mM)	NP40-soluble protein abundance (concentration: 6mM)	NP40-soluble protein abundance (concentration: 8mM)	NP40-soluble protein abundance (concentration: 10mM)
SH3BGRL (UniProt O75368) is listed with 0.939 ± 0.027	0.966 ± 0.028	0.888 ± 0.013	0.937 ± 0.031	0.907 ± 0.015	0.897 ± 0.033
UniProt O75081 and related entries is listed with 1 ± 0.031	1.03 ± 0.015	1.02 ± 0.02	1.05 ± 0.035	1.03 ± 0.05	1.03 ± 0.042
UniProt O75170-3|O75170-4|O75170-5|O75170 and related entries is listed with 0.9985 ± 0.0062	0.99 ± 0.014	1.017 ± 0.01	0.979 ± 0.013	0.953 ± 0.044	0.971 ± 0.028
WDHD1 (UniProt O75717) is listed with 1.01 ± 0.021	0.996 ± 0.012	0.99 ± 0.015	0.963 ± 0.036	0.953 ± 0.016	0.937 ± 0.014

Later entries

Target	NP40-soluble protein abundance (concentration: 1mM)	NP40-soluble protein abundance (concentration: 2mM)	NP40-soluble protein abundance (concentration: 4mM)	NP40-soluble protein abundance (concentration: 6mM)	NP40-soluble protein abundance (concentration: 8mM)	NP40-soluble protein abundance (concentration: 10mM)
ZNF217 (UniProt O75362)	1.02 ± 0.043	1.09 ± 0.031	1.06 ± 0.013	1.02 ± 0.064	1.01 ± 0.058	1.04 ± 0.021
UniProt O95453 and related entries	1.02 ± 0.018	0.975 ± 0.042	0.9979 ± 0.0039	0.991 ± 0.026	0.997 ± 0.016	0.968 ± 0.013
UTP20 (UniProt O75691)	1.04 ± 0.065	1.04 ± 0.011	1.04 ± 0.039	1.03 ± 0.034	1.05 ± 0.016	1.08 ± 0.055
TAF5L (UniProt O75529)	0.995 ± 0.014	0.979 ± 0.02	0.996 ± 0.026	1.02 ± 0.038	1.01 ± 0.032	1.01 ± 0.07
RAD21 (UniProt O60216)	1.01 ± 0.036	1.02 ± 0.047	0.998 ± 0.022	1.01 ± 0.022	0.961 ± 0.027	0.993 ± 0.04
SNAPIN (UniProt O95295)	0.972 ± 0.015	0.97339 ± 0.0008	0.96 ± 0.032	0.97 ± 0.047	0.97 ± 0.013	0.9615 ± 0.0095
UniProt O75071	1.004 ± 0.0012	1.07 ± 0.079	1 ± 0.014	0.997 ± 0.022	0.994 ± 0.017	0.976 ± 0.035
UniProt O94768	1.07 ± 0.033	1.02 ± 0.091	1.04 ± 0.033	1.07 ± 0.034	1.08 ± 0.035	1.04 ± 0.049
ATP6V1G1 (UniProt O75348)	0.978 ± 0.043	0.988 ± 0.026	0.892 ± 0.059	0.829 ± 0.074	0.803 ± 0.023	0.803 ± 0.026
KBTBD11 (UniProt O94819)	0.993 ± 0.042	0.999 ± 0.031	0.99 ± 0.039	1.02 ± 0.048	1 ± 0.026	1.02 ± 0.042
KATNA1 (UniProt O75449)	1 ± 0.011	1.005 ± 0.0082	1.008 ± 0.009	0.975 ± 0.05	0.985 ± 0.016	0.959 ± 0.038
CPNE3 (UniProt O75131)	0.965 ± 0.021	0.91 ± 0.064	0.9982 ± 0.0081	1.07 ± 0.13	1.08 ± 0.11	1.03 ± 0.059
UBXN7 (UniProt O94888)	1.02 ± 0.068	1.01 ± 0.065	1.01 ± 0.077	0.982 ± 0.033	0.989 ± 0.038	0.976 ± 0.085
UniProt O95248-4|G5E933 and related entries	0.985 ± 0.031	0.953 ± 0.067	0.994 ± 0.039	0.96 ± 0.015	0.963 ± 0.04	0.976 ± 0.041
WDR1 (UniProt O75083)	0.974 ± 0.031	0.917 ± 0.059	0.946 ± 0.02	0.983 ± 0.044	0.994 ± 0.018	0.965 ± 0.017
RPP14 (UniProt O95059)	0.961 ± 0.029	0.956 ± 0.011	0.9406 ± 0.0069	1.043 ± 0.0034	1.05 ± 0.027	1.04 ± 0.047
UniProt O75525 and related entries	1.04 ± 0.03	1.05 ± 0.048	1.07 ± 0.036	1.1 ± 0.058	1.11 ± 0.091	1.11 ± 0.091
HIP1R (UniProt O75146)	1.06 ± 0.019	1.11 ± 0.037	1.11 ± 0.022	1.11 ± 0.038	1.11 ± 0.044	1.18 ± 0.033
UniProt O94766 and related entries	0.964 ± 0.06	0.983 ± 0.055	0.994 ± 0.077	0.971 ± 0.048	0.994 ± 0.075	0.961 ± 0.11
UniProt O60762 and related entries	0.92 ± 0.019	0.858 ± 0.092	0.992 ± 0.09	1.02 ± 0.065	1.08 ± 0.037	1.02 ± 0.087

Target	NP40-soluble protein abundance (concentration: 1mM)	NP40-soluble protein abundance (concentration: 2mM)	NP40-soluble protein abundance (concentration: 4mM)	NP40-soluble protein abundance (concentration: 6mM)	NP40-soluble protein abundance (concentration: 8mM)	NP40-soluble protein abundance (concentration: 10mM)
UniProt O75865 and related entries	0.971 ± 0.03	0.906 ± 0.064	0.957 ± 0.051	0.994 ± 0.06	1.01 ± 0.048	0.979 ± 0.028
ATRN (UniProt O75882)	0.99 ± 0.016	1.04 ± 0.052	1.03 ± 0.025	0.994 ± 0.032	1.01 ± 0.013	0.9981 ± 0.0063
UniProt O95425 and related entries	0.952 ± 0.093	0.959 ± 0.14	0.929 ± 0.092	1.002 ± 0.0039	0.998 ± 0.046	0.999 ± 0.064
ACSL3 (UniProt O95573)	1.01 ± 0.05	0.976 ± 0.079	1.01 ± 0.075	0.987 ± 0.036	1 ± 0.068	0.968 ± 0.057
UniProt O60499 and related entries	1.06 ± 0.038	1.06 ± 0.05	1.03 ± 0.065	1.02 ± 0.013	1.04 ± 0.026	0.972 ± 0.022
PPP1R11 (UniProt O60927)	1.03 ± 0.049	1.07 ± 0.07	1.05 ± 0.069	1.02 ± 0.034	1.02 ± 0.068	1.03 ± 0.053
UniProt O94985-2	1.01 ± 0.028	1.009 ± 0.006	1.02 ± 0.015	0.9869 ± 0.007	0.995 ± 0.013	0.987 ± 0.037
TOX (UniProt O94900)	0.962 ± 0.081	1.04 ± 0.15	0.953 ± 0.08	1.04 ± 0.044	0.994 ± 0.06	1.01 ± 0.047
UniProt O95644 and related entries	0.996 ± 0.018	1.02 ± 0.047	1 ± 0.03	0.984 ± 0.036	0.968 ± 0.016	1 ± 0.031
ARL6IP5 (UniProt O75915)	0.971 ± 0.061	0.926 ± 0.059	0.957 ± 0.048	0.991 ± 0.061	0.972 ± 0.019	0.98 ± 0.052
MCM3AP (UniProt O60318)	0.987 ± 0.055	0.995 ± 0.016	1.01 ± 0.028	1.02 ± 0.028	0.9948 ± 0.0076	1.06 ± 0.019
IDH1 (UniProt O75874)	0.967 ± 0.017	0.925 ± 0.059	0.929 ± 0.032	0.941 ± 0.0025	0.935 ± 0.013	0.921 ± 0.026
SF3B1 (UniProt O75533)	0.984 ± 0.017	0.9945 ± 0.0013	1.02 ± 0.018	1.05 ± 0.019	1.07 ± 0.033	1.08 ± 0.077
BRD4 (UniProt O60885)	1.03 ± 0.033	1.14 ± 0.059	1.09 ± 0.015	1.1 ± 0.055	1.07 ± 0.038	1.123 ± 0.0069
SLC25A12 (UniProt O75746)	0.98 ± 0.011	0.943 ± 0.082	0.985 ± 0.048	0.973 ± 0.035	0.977 ± 0.041	0.986 ± 0.046
SLC16A7 (UniProt O60669)	1.03 ± 0.029	1.05 ± 0.056	0.99 ± 0.07	1.015 ± 0.0051	1 ± 0.046	1.02 ± 0.03
TUSC2 (UniProt O75896)	1.01 ± 0.035	1 ± 0.037	0.9769 ± 0.0092	1 ± 0.047	1.02 ± 0.049	1.04 ± 0.027
UniProt O60333-3|O60333 and related entries	0.948 ± 0.04	0.943 ± 0.044	0.961 ± 0.026	0.996 ± 0.06	0.984 ± 0.049	0.955 ± 0.05
CLPX (UniProt O76031)	0.957 ± 0.062	0.969 ± 0.062	0.955 ± 0.074	0.909 ± 0.08	0.886 ± 0.074	0.923 ± 0.078
DDHD2 (UniProt O94830)	0.99 ± 0.071	0.932 ± 0.047	0.9754 ± 0.0091	0.974 ± 0.044	0.962 ± 0.04	0.933 ± 0.023
